From paper PMC11879137
Results are given in words; binding and its absence hold for the method and conditions named. In cells and extracts the contact can be indirect. A yes stands for co-enrichment or nearness to the bait. Other partners may have been found.

Sequences of proteins named here, by UniProt entry; tags and fusion partners are left off. A change or cut given only in a name is not applied to a line headed by its entry. Residues count along the entry.
UniProt Q9UKI8: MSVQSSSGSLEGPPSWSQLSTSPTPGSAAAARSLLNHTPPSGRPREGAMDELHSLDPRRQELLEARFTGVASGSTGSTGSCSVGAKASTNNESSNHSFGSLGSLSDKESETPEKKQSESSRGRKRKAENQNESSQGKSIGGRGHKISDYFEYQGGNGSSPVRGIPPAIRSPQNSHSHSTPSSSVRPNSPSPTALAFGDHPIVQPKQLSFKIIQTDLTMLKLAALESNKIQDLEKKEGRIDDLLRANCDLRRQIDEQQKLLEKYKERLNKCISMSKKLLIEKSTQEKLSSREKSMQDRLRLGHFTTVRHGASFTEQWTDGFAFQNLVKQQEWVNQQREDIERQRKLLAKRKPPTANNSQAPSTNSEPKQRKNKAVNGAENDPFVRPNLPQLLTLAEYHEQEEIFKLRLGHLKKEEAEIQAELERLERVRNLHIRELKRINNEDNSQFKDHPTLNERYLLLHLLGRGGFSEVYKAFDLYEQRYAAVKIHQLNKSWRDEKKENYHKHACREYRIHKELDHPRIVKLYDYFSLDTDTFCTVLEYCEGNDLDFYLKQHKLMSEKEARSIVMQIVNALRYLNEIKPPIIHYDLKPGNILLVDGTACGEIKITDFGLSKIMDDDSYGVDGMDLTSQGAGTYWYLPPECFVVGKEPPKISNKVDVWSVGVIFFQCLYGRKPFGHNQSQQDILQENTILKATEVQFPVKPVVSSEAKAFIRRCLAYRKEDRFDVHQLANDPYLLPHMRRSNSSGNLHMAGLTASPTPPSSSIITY
SFB-TLK1 1–240: residues 1-240 of Q9UKI8
SFB-TLK1 133–208: residues 133-208 of Q9UKI8
UniProt P12004: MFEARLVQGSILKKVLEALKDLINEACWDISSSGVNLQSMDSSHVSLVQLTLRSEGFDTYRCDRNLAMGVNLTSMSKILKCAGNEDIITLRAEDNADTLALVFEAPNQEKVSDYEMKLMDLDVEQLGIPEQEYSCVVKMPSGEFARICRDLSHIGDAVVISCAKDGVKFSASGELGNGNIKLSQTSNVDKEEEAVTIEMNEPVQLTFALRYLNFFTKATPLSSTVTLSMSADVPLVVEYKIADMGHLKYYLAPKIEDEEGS

Key:
Assay in all cases: affinity purification with mass spectrometry; tandem affinity purification of SFB-tagged bait from soluble and chromatin fractions of transfected HEK293T (NETN buffer; streptavidin sepharose, biotin elution, S-protein agarose), in-gel digestion and tandem mass spectrometry
SFB-TLK1 1–240 (human) = SFB-TLK1 1–240 (human) (UniProt Q9UKI8)
SFB-TLK1 133–208 (human) = SFB-TLK1 133–208 (human) (UniProt Q9UKI8)
SFB-TLK1 D607A (human) = SFB-TLK1 D607A (human) (UniProt Q9UKI8)

binding (SFB-TLK1 1–240 (human)): binds | binding (SFB-TLK1 133–208 (human)): binds | binding (SFB-TLK1 D607A (human)): binds
Substance: PCNA (from UniProt P12004 1-261)
